# Results as given in patent publication US8552007B2, “Mesoionic pesticides” (E.I. du Pont de Nemours and Company, priority 2008, dated 2013).
# Like-named read-outs stand apart in the source and are kept apart here. Some results were stated once for a whole list of compounds, not compound by compound. At least one structure is not confirmed: it was looked up by name or label, or the drawing left a doubt.
# Test system: potato leafhopper (Empoasca fabae)
# Format: in vivo
# Conditions: Soleil bean plant, 6 days
# Procedure: For evaluating control of potato leafhopper (Empoasca fabae) through contact and/or systemic means, the test unit consisted of a small open container with a 5-6-day-old Soleil bean plant (primary leaves emerged) inside. White sand was added to the top of the soil and one of the primary leaves was excised prior to application.
# Test compounds were formulated and sprayed at 250 and 50 ppm, and the tests were replicated three times as described for Test A. After spraying, the test units were allowed to dry for 1 h before they were post-infested with 5 potato leafhoppers (18-21-day-old adults). A black, screened cap was placed on the top of the cylinder. The test units were held for 6 days in a growth chamber at 24° C. and 70% relative humidity. Each test unit was then visually assessed for insect mortality.
smiles,measurement,setting,value
CCC[n+]1c([O-])c(-c2cc(Cl)ccc2OC)c(=O)n2ccccc21 [Compound 318],mortality,sprayed at 50 ppm,≥ 80%
same,mortality,sprayed at 250 ppm,≥ 80%
O=c1c(-c2ccc(F)cc2C(F)(F)F)c([O-])[n+](CC(F)(F)F)c2ccccn12 [Compound 396],mortality,sprayed at 50 ppm,≥ 80%
same,mortality,sprayed at 250 ppm,≥ 80%
N#Cc1cc(-c2c([O-])[n+](CC(F)(F)F)c3ccccn3c2=O)ccc1F [Compound 369],mortality,sprayed at 50 ppm,≥ 80%
same,mortality,sprayed at 250 ppm,≥ 80%
O=c1c(-c2ccccc2)c([O-])[n+](CC2CCOC2)c2ccccn12 (centres unmarked) [Compound 466],mortality,sprayed at 50 ppm,≥ 80%
same,mortality,sprayed at 250 ppm,≥ 80%
O=c1c(-c2ccc(Cl)cc2F)c([O-])[n+](CC(F)(F)F)c2ccccn12 [Compound 21],mortality,sprayed at 50 ppm,≥ 80%
same,mortality,sprayed at 250 ppm,≥ 80%
O=c1c(-c2ccc(F)cc2)c([O-])[n+](Cc2ccccn2)c2ccccn12 [Compound 606],mortality,sprayed at 250 ppm,≥ 80%
O=c1c(-c2ccc(F)cc2)c([O-])[n+](CCC(F)(F)F)c2ccccn12 [Compound 365],mortality,sprayed at 250 ppm,≥ 80%
COc1ccc(-c2c([O-])[n+](Cc3ccc(Cl)nc3)c3ccccn3c2=O)cc1C(F)(F)F [Compound 445],mortality,sprayed at 250 ppm,≥ 80%
O=c1c(-c2ccccc2F)c([O-])[n+](CC(F)(F)F)c2ccccn12 [Compound 11],mortality,sprayed at 50 ppm,≥ 80%
same,mortality,sprayed at 250 ppm,≥ 80%
CCC[n+]1c([O-])c(-c2ccc(F)cc2F)c(=O)n2ccccc21 [Compound 408],mortality,sprayed at 50 ppm,≥ 80%
O=c1c(-c2ccc(F)cc2Cl)c([O-])[n+](CC2CC2)c2ccccn12 [Compound 29],mortality,sprayed at 50 ppm,≥ 80%
same,mortality,sprayed at 250 ppm,≥ 80%
N#Cc1ccc(-c2c([O-])[n+](Cc3ccc(Cl)nc3)c3ccccn3c2=O)c(F)c1 [Compound 94],mortality,sprayed at 50 ppm,≥ 80%
same,mortality,sprayed at 250 ppm,≥ 80%
O=c1c(-c2ccc(F)cc2F)c([O-])[n+](CC2CC2(F)F)c2ccccn12 (centres unmarked) [Compound 172],mortality,sprayed at 50 ppm,≥ 80%
O=c1c(-c2ccc(F)cc2Br)c([O-])[n+](Cc2ccc(Cl)nc2)c2ccccn12 [Compound 99],mortality,sprayed at 50 ppm,≥ 80%
same,mortality,sprayed at 250 ppm,≥ 80%
CCC[n+]1c([O-])c(-c2ccccc2OC)c(=O)n2ccccc21 [Compound 292],mortality,sprayed at 250 ppm,≥ 80%
O=c1c(-c2cc(OC(F)(F)F)ccc2Cl)c([O-])[n+](CC(F)(F)F)c2ccccn12 [Compound 397],mortality,sprayed at 50 ppm,≥ 80%
same,mortality,sprayed at 250 ppm,≥ 80%
N#Cc1ccc(-c2c([O-])[n+](CC(F)(F)F)c3ccccn3c2=O)c(F)c1 [Compound 223],mortality,sprayed at 50 ppm,≥ 80%
O=c1c(-c2ccccc2)c([O-])[n+](Cc2ccc(Cl)cn2)c2ccccn12 [Compound 416],mortality,sprayed at 50 ppm,≥ 80%
same,mortality,sprayed at 250 ppm,≥ 80%
O=c1c(-c2cc(F)c(F)cc2F)c([O-])[n+](Cc2ccc(F)nc2)c2ccccn12 [Compound 204],mortality,sprayed at 50 ppm,≥ 80%
CCC[n+]1c([O-])c(-c2cc(Br)cc(OC)c2)c(=O)n2ccccc21 [Compound 315],mortality,sprayed at 250 ppm,≥ 80%
O=c1c(-c2ccccc2F)c([O-])[n+](Cc2ccc(Cl)nc2)c2sccn12 [Compound 157],mortality,sprayed at 50 ppm,≥ 80%
O=c1c(-c2cccc(F)c2)c([O-])[n+](CC(F)(F)F)c2ccccn12 [Compound 360],mortality,sprayed at 250 ppm,≥ 80%
O=c1c(-c2ccc3c(c2)CCO3)c([O-])[n+](CC(F)(F)F)c2ccccn12 [Compound 435],mortality,sprayed at 50 ppm,≥ 80%
same,mortality,sprayed at 250 ppm,≥ 80%
O=c1c(-c2ccc(F)c(F)c2F)c([O-])[n+](CC(F)(F)F)c2ccccn12 [Compound 392],mortality,sprayed at 50 ppm,≥ 80%
same,mortality,sprayed at 250 ppm,≥ 80%
O=c1c(-c2c(F)cc(F)cc2F)c([O-])[n+](CC(F)(F)F)c2ccccn12 [Compound 394],mortality,sprayed at 50 ppm,≥ 80%
same,mortality,sprayed at 250 ppm,≥ 80%
O=c1c(-c2c(F)cc(F)cc2Br)c([O-])[n+](CC(F)(F)F)c2ccccn12 [Compound 404],mortality,sprayed at 50 ppm,≥ 80%
same,mortality,sprayed at 250 ppm,≥ 80%
O=c1c(-c2ccccc2F)c([O-])[n+](Cc2ccc(F)nc2)c2ccccn12 [Compound 225],mortality,sprayed at 50 ppm,≥ 80%
O=c1c(-c2ccc(F)cc2Cl)c([O-])[n+](Cc2ccc(Cl)nc2)c2ccccn12 [Compound 419],mortality,sprayed at 250 ppm,≥ 80%
COc1ccc(-c2c([O-])[n+](CC(F)(F)F)c3ccccn3c2=O)cc1OC [Compound 328],mortality,sprayed at 250 ppm,≥ 80%
O=c1c(-c2ccc(Br)cc2F)c([O-])[n+](CC(F)(F)F)c2ccccn12 [Compound 403],mortality,sprayed at 50 ppm,≥ 80%
same,mortality,sprayed at 250 ppm,≥ 80%
O=c1c(-c2cc(F)c(F)cc2F)c([O-])[n+](CC(F)(F)F)c2ccccn12 [Compound 393],mortality,sprayed at 250 ppm,≥ 80%
Cc1ccc(C[n+]2c([O-])c(-c3ccc(F)cc3)c(=O)n3ccccc32)cn1 [Compound 464],mortality,sprayed at 50 ppm,≥ 80%
same,mortality,sprayed at 250 ppm,≥ 80%
N#Cc1ccc(-c2c([O-])[n+](CC3CC3)c3ccccn3c2=O)c(F)c1 [Compound 171],mortality,sprayed at 50 ppm,≥ 80%
COc1ccc(-c2c([O-])[n+](Cc3cnc(Cl)c(Cl)c3)c3ccccn3c2=O)cc1 [Compound 443],mortality,sprayed at 250 ppm,≥ 80%
CSc1ccc(-c2c([O-])[n+](Cc3ccc(Cl)nc3)c3ccccn3c2=O)cc1 [Compound 417],mortality,sprayed at 50 ppm,≥ 80%
same,mortality,sprayed at 250 ppm,≥ 80%
O=c1c(-c2ccc(F)cc2F)c([O-])[n+](CC2CC2)c2ccccn12 [Compound 31],mortality,sprayed at 50 ppm,≥ 80%
same,mortality,sprayed at 250 ppm,≥ 80%
N#Cc1ccc(-c2c([O-])[n+](CC(F)(F)F)c3ccccn3c2=O)cc1 [Compound 325],mortality,sprayed at 250 ppm,≥ 80%
Cc1cc(C[n+]2c([O-])c(-c3ccccc3F)c(=O)n3ccccc32)on1 [Compound 224],mortality,sprayed at 50 ppm,≥ 80%
CCC[n+]1c([O-])c(-c2cc(C(F)(F)F)ccc2OC)c(=O)n2ccccc21 [Compound 344],mortality,sprayed at 250 ppm,≥ 80%
O=c1c(-c2ccc(F)cc2F)c([O-])[n+](CCC(F)C(F)(F)Cl)c2ccccn12 (centres unmarked) [Compound 30],mortality,sprayed at 50 ppm,≥ 80%
same,mortality,sprayed at 250 ppm,≥ 80%
O=c1c(-c2ccccc2F)c([O-])[n+](Cc2cnc(Cl)c(Cl)c2)c2ccccn12 [Compound 444],mortality,sprayed at 250 ppm,≥ 80%
COc1ccccc1-c1c([O-])[n+](Cc2cnc(Cl)s2)c2sccn2c1=O [Compound 160],mortality,sprayed at 50 ppm,≥ 80%
O=c1c(-c2ccc(F)cc2F)c([O-])[n+](CC(F)(F)C(F)(F)F)c2ccccn12 [Compound 36],mortality,sprayed at 250 ppm,≥ 80%
CCC[n+]1c([O-])c(-c2ccccc2F)c(=O)n2ccccc21 [Compound 280],mortality,sprayed at 50 ppm,≥ 80%
same,mortality,sprayed at 250 ppm,≥ 80%
Cn1cc(C[n+]2c([O-])c(-c3cc(C(F)(F)F)ccc3F)c(=O)n3ccccc32)cn1 [Compound 238],mortality,sprayed at 50 ppm,≥ 80%
O=c1c(-c2ccccc2Cl)c([O-])[n+](CC(F)(F)F)c2ccccn12 [Compound 378],mortality,sprayed at 250 ppm,≥ 80%
N#Cc1ccc(-c2c([O-])[n+](Cc3ccc(F)nc3)c3ccccn3c2=O)c(F)c1 [Compound 462],mortality,sprayed at 50 ppm,≥ 80%
same,mortality,sprayed at 250 ppm,≥ 80%
O=c1c(-c2cccc(OC(F)(F)F)c2)c([O-])[n+](Cc2cccnc2)c2ccccn12 [Compound 411],mortality,sprayed at 50 ppm,≥ 80%
same,mortality,sprayed at 250 ppm,≥ 80%
Cn1cc(C[n+]2c([O-])c(-c3ccc(F)cc3)c(=O)n3ccccc32)cn1 [Compound 214],mortality,sprayed at 50 ppm,≥ 80%
CCC[n+]1c([O-])c(-c2ccc(F)cc2F)c(=O)n2ccccc21 [Compound 163],mortality,sprayed at 250 ppm,≥ 80%
Cc1cnc(C[n+]2c([O-])c(-c3ccc(F)cc3)c(=O)n3ccccc32)cn1 [Compound 449],mortality,sprayed at 50 ppm,≥ 80%
same,mortality,sprayed at 250 ppm,≥ 80%
O=c1c(-c2ccc(F)cc2Cl)c([O-])[n+](CC(F)(F)F)c2ccccn12 [Compound 357],mortality,sprayed at 50 ppm,≥ 80%
same,mortality,sprayed at 250 ppm,≥ 80%
Cc1ccccc1-c1c([O-])[n+](CC(F)(F)F)c2ccccn2c1=O [Compound 376],mortality,sprayed at 250 ppm,≥ 80%
O=c1c(-c2ccc(F)cc2)c([O-])[n+](CC2CCOC2)c2ccccn12 (centres unmarked) [Compound 467],mortality,sprayed at 50 ppm,≥ 80%
same,mortality,sprayed at 250 ppm,≥ 80%
O=c1c(I)c([O-])[n+](CCC(F)C(F)(F)Cl)c2ccccn12 (centres unmarked) [Compound 113],mortality,sprayed at 250 ppm,≥ 80%
N#Cc1ccccc1-c1c([O-])[n+](CC(F)(F)F)c2ccccn2c1=O [Compound 399],mortality,sprayed at 50 ppm,≥ 80%
same,mortality,sprayed at 250 ppm,≥ 80%
O=c1c(-c2ccc(F)cc2F)c([O-])[n+](CC2CCOC2)c2ccccn12 (centres unmarked) [Compound 468],mortality,sprayed at 250 ppm,≥ 80%
O=c1c(-c2c(Cl)cc(Cl)cc2Cl)c([O-])[n+](CC(F)(F)F)c2ccccn12 [Compound 381],mortality,sprayed at 50 ppm,≥ 80%
same,mortality,sprayed at 250 ppm,≥ 80%
CCC[n+]1c([O-])c(-c2cc(C(F)(F)F)ccc2OCC)c(=O)n2ccccc21 [Compound 345],mortality,sprayed at 250 ppm,≥ 80%
Cn1cc(C[n+]2c([O-])c(-c3ccccc3)c(=O)n3ccccc32)cn1 [Compound 213],mortality,sprayed at 50 ppm,≥ 80%
O=c1c(-c2ccc(F)cc2F)c([O-])[n+](Cc2cnc(Cl)c(Cl)c2)c2ccccn12 [Compound 437],mortality,sprayed at 50 ppm,≥ 80%
same,mortality,sprayed at 250 ppm,≥ 80%
Cc1cc(F)ccc1-c1c([O-])[n+](CC(F)(F)F)c2ccccn2c1=O [Compound 433],mortality,sprayed at 50 ppm,≥ 80%
same,mortality,sprayed at 250 ppm,≥ 80%
CCC[n+]1c([O-])c(-c2ccc(F)cc2Cl)c(=O)n2ccccc21 [Compound 407],mortality,sprayed at 50 ppm,≥ 80%
same,mortality,sprayed at 250 ppm,≥ 80%
O=c1c(-c2ccccc2)c([O-])[n+](Cc2csc(Cl)n2)c2ccccn12 [Compound 194],mortality,sprayed at 50 ppm,≥ 80%
O=c1c(-c2ccccc2)c([O-])[n+](CCC(F)(F)F)c2ccccn12 [Compound 38],mortality,sprayed at 250 ppm,≥ 80%
O=c1c(CCC(F)=C(F)F)c([O-])[n+](CC(F)(F)F)c2ccccn12 [Compound 117],mortality,sprayed at 250 ppm,≥ 80%
O=c1c(-c2ccccc2)c([O-])[n+](Cc2ccccn2)c2ccccn12 [Compound 604],mortality,sprayed at 250 ppm,≥ 80%
